Assay results taken from US6911443B2 (Bayer Aktiengesellschaft, priority 2000, dated 2005).
Structures were worked out from names or drawings and are uncertain.

Biological target: human Syk (GST-Syk) (Homo sapiens, UniProt P43405)
Assay: Syk tyrosine kinase inhibitory assay
Assay type: biochemical
Conditions: read-out: Activity grade; Table 13

IC50: < 500 nM
Compound: COc1ccc(-c2cc3nccn3c(Sc3ccc(CCC(=O)O)cc3C(N)=O)n2)cc1OC [Example 14-35]
